Experimental data published in paper PMC12644026.

Protein sequences, listed by entry. Tags and fused reporters are not part of them. Lines headed by an entry give the natural chain unless they say otherwise; changes in a name come on top. Chains listed by the source or under a name are the forms on record and can include a tag or linker.
BirA-Cdc42 G12V (P60953, form named): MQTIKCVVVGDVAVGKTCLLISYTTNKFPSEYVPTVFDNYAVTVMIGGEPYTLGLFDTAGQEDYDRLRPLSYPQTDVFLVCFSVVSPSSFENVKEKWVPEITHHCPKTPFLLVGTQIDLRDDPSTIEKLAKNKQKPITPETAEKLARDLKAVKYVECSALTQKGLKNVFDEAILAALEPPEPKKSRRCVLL

Columns and labels:
BirA-Cdc42 WT = BirA-Cdc42 WT (UniProt P60953); assay: proximity labelling; BioID in immortalized human podocytes expressing doxycycline-inducible BirA-Rho GTPase baits; 16 h with 1 ug/mL doxycycline (0.1 ug/mL for constitutively active mutants) and 50 uM biotin; RIPA lysis; biotinylated proteins pulled down on streptavidin beads; mass spectrometry; SAINT AvgP >= 0.95; controls empty MYC-BirA vector and BirA*-Flag-GFP
[1] = target: BirA-Cdc42 G12V (constitutively active Cdc42) (UniProt P60953); assay: as above

Question: How did the binding (BirA-Cdc42 WT) turn out when ARHGEF40 (from UniProt Q8TER5 1-1519) was run?
Answer: The binding was “binds”.

B1: WIPF2 (protein, UniProt Q8TF74 1-440)
chain: MPIPPPPPPPPGPPPPPTFHQANTEQPKLSRDEQRGRGALLQDICKGTKLKKVTNINDRSAPILEKPKGSSGGYGSGGAALQPKGGLFQGGVLKLRPVGAKDGSENLAGKPALQIPSSRAAAPRPPVSAASGRPQDDTDSSRASLPELPRMQRPSLPDLSRPNTTSSTGMKHSSSAPPPPPPGRRANAPPTPLPMHSSKAPAYNREKPLPPTPGQRLHPGREGPPAPPPVKPPPSPVNIRTGPSGQSLAPPPPPYRQPPGVPNGPSSPTNESAPELPQRHNSLHRKTPGPVRGLAPPPPTSASPSLLSNRPPPPARDPPSRGAAPPPPPPVIRNGARDAPPPPPPYRMHGSEPPSRGKPPPPPSRTPAGPPPPPPPPLRNGHRDSITTVRSFLDDFESKYSFHPVEDFPAPEEYKHFQRIYPSKTNRAARGAPPLPPILR
Question: How did the binding [1] turn out when B1 was run?
Answer: Its binding is “binds”.

No constants are given. Whether binding was seen depends on the method and setting. Binding seen in cells or lysates may run through a third protein. These calls come from enrichment with a bait or labelling near it, and not all partners need be listed.
